Measured values published in patent US11530193B2, “Kinase inhibitors” (The University of Manchester, priority 2018, dated 2022).
At least one compound was matched to its structure with a doubt left.

Target: SYK (Homo sapiens (Human), UniProt P43405)
Experiment: Tm-Shift assay (thermal melting, SYPRO Orange);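 note: recombinant His-tagged protein made in Sf9 insect cells by baculovirus, in HEPES NaCl buffer, heated stepwise with fluorescence recorded at every temperature step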
Format: binding
Conditions: compound 10 μM, protein 2 μM; ΔTm obs vs protein without ligand; triplicate

NC(=O)c1cnc(N2CCC[C@H](N)C2)nc1Nc1cccc(C(=O)N2CCN3CCC[C@@H]3C2)c1 [Example 34, 2-((S)-3-aminopiperidin-1-yl)-4-((3-((R)-octahydropyrrolo[1,2-a]pyrazine-2-carbonyl)phenyl)amino)pyrimidine-5-carboxamide]
SYK Tm-Shift: 2.3 °C
